Data as given in PubChem BioAssay AID652243 (Drosophila RNAi Screening Center, 2013)
The deposit covers about 24,000 reagents; this is a random part of those with a known target gene and a result. Over the whole deposit, 246 (1%) were called active. 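Plates not normalised; calls are printed but the firefly/Renilla ratio behind them is not deposited; fold cut for lowering reported inconsistently.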 Raw values vary from plate to plate and are shown uncorrected. The record does not give: the amount of reagent.

- Test: 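Fly genes required for human androgen receptor driven transcription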 (primary screen)
- Cells: Drosophila S2R+ cells
- Knock-down reagent: long dsRNA against Drosophila genes
- Timing: 72 h (48 h, then 24 h hormone)
- Challenge: synthetic androgen R1881 at 10 nM for 24 h
- Detection: 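Per-well raw luminescence of the androgen-driven firefly reporter and of the Renilla control, two replicates each, without normalisation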
- Direction: firefly reporter light: higher = more light from androgen-responsive reporter; Renilla control light: higher = more constitutive control signal (cell number, transfection)
- Rule for the call: 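Hit when the log firefly-to-Renilla ratio dropped or increased by a fixed fold versus the mean of GFP or LacZ controls across duplicate plates; lowering cut given as 1.5 and as 3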
- Meaning of the calls: active = hit: reporter lowered or raised; inactive = no hit

For BomS6 (GeneID 50206) [DRSC21676], how do the results read?
firefly reporter light, replicate 1: 6.76e5; firefly reporter light, replicate 2: 6.50e5; Renilla control light, replicate 1: 2.56e6; Renilla control light, replicate 2: 1.87e6; Call: inactive

What did the screen give for BomS6 (GeneID 50206) [DRSC26792]?
firefly reporter light, replicate 1: 4.70e5; firefly reporter light, replicate 2: 5.12e5; Renilla control light, replicate 1: 6.85e5; Renilla control light, replicate 2: 7.66e5; Call: inactive

What is on record for CG32708 (GeneID 318161) [DRSC18411]?
firefly reporter light, replicate 1: 4.25e5; firefly reporter light, replicate 2: 6.49e5; Renilla control light, replicate 1: 2.46e6; Renilla control light, replicate 2: 2.69e6; Call: inactive

Which result is listed for CG32708 (GeneID 318161) [DRSC28419]?
firefly reporter light, replicate 1: 2.84e5; firefly reporter light, replicate 2: 2.87e5; Renilla control light, replicate 1: 6.57e5; Renilla control light, replicate 2: 7.38e5; Call: inactive

2 of these entries, set out differently.
| predicted target | dsRNA | firefly reporter light, replicate 1 | firefly reporter light, replicate 2 | Renilla control light, replicate 1 | Renilla control light, replicate 2 | Call |
| --- | --- | --- | --- | --- | --- | --- |
| CG32708 (GeneID 318161) | DRSC18411 | 4.25e5 | 6.49e5 | 2.46e6 | 2.69e6 | inactive |
| CG32708 (GeneID 318161) | DRSC28419 | 2.84e5 | 2.87e5 | 6.57e5 | 7.38e5 | inactive |

Further results follow.
What did the screen give for put (GeneID 41772) [DRSC17039]?
firefly reporter light, replicate 1: 94826; firefly reporter light, replicate 2: 1.03e5; Renilla control light, replicate 1: 8.99e5; Renilla control light, replicate 2: 6.79e5; Call: active

What did the screen give for put (GeneID 41772) [DRSC36611]?
Call: inactive

How did the screen score put (GeneID 41772) [DRSC36612]?
Call: inactive

How did the screen score Flad2 (GeneID 34759) [DRSC02531]?
firefly reporter light, replicate 1: 2.35e5; firefly reporter light, replicate 2: 3.15e5; Renilla control light, replicate 1: 2.23e6; Renilla control light, replicate 2: 2.17e6; Call: inactive

What is on record for Flad2 (GeneID 34759) [DRSC27627]?
firefly reporter light, replicate 1: 4.03e5; firefly reporter light, replicate 2: 3.03e5; Renilla control light, replicate 1: 5.22e5; Renilla control light, replicate 2: 5.17e5; Call: inactive

What is on record for Odc1 (GeneID 35766) [DRSC07482]?
firefly reporter light, replicate 1: 1.12e6; firefly reporter light, replicate 2: 2.96e5; Renilla control light, replicate 1: 1.83e6; Renilla control light, replicate 2: 8.32e5; Call: inactive

How did the screen score Odc1 (GeneID 35766) [DRSC29610]?
firefly reporter light, replicate 1: 2.53e5; firefly reporter light, replicate 2: 4.26e5; Renilla control light, replicate 1: 7.78e5; Renilla control light, replicate 2: 7.78e5; Call: inactive

With a (GeneID 43852) [DRSC04668], what does the deposit list?
firefly reporter light, replicate 1: 1.51e5; firefly reporter light, replicate 2: 2.45e5; Renilla control light, replicate 1: 1.55e6; Renilla control light, replicate 2: 1.36e6; Call: inactive

For a (GeneID 43852) [DRSC27708], how do the results read?
firefly reporter light, replicate 1: 3.05e5; firefly reporter light, replicate 2: 1.98e5; Renilla control light, replicate 1: 7.24e5; Renilla control light, replicate 2: 7.42e5; Call: inactive
